Measurements: PubChem BioAssay AID1347076 (National Center for Advancing Translational Sciences (NCATS), 2019)
Among all 400,000 compounds or so, about 13,000 (3.2%) were called active. The inconclusive results got no clear call from the source; some entries with a clear call stand among them for comparison. The call rests on the fitted dose curve; in most records, active means well fitted cell-killing curve with a large enough effect; inconclusive means small, poorly fitted or top-dose-only effect, or effect the other way; inactive means flat fitted curve, though single readings scatter. Where the call is inconclusive, the potency comes from a doubtful curve fit.

test: qHTS assay for MDR1-selective chemotherapeutics: Primary screen using the drug-selected MDR subline cells KB-V1; conditions: KB-V1 MDR cells viability, CellTiter-Glo, 72 h; series mostly up to 46.1 µM; further: nearly all actives have a fitted effect of over 60% in size
Outline: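 Following 72 h at 37 degrees C with compound, KB-V1 cell viability was read by CellTiter-Glo luminescence, medium being phenol-red-free DMEM plus 10% FBS; concentration-response parameters came from normalized, curve-fitted qHTS data.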
Potency means the concentration at half of the fitted maximal effect.

SMILES	Potency
Cc1ccc(S(=O)(=O)C2(C(=O)Nc3ccc(Br)cc3)CC2)cc1	inconclusive: 14.6 µM [cytotoxic, partial curve]
Cc1ccc2c(c1)c1c(n2CC(O)Cn2c(C)nc3ccccc32)CCCC1 (stereo unspecified)	inconclusive: 29.1 µM [cytotoxic, single point]
Cc1c(CC(=O)NCCCO)c(=O)oc2cc3c(cc12)CCC(C)(C)O3	inactive
CC(C)n1c(SCC(N)=O)nc2c1c(=O)n(C)c(=O)n2C	inactive
COc1ccc(N2CCN(C(=S)Nc3ccccc3)CC2)cc1	inactive
CC(C)=CCN1CCN(C/C(Cl)=C/c2ccccc2)CC1CCO (stereo unspecified)	inactive
COCCNC(=O)C(c1ccncc1)N(C(=O)c1sc(C)nc1C)c1cccc(C)c1 (stereo unspecified)	inconclusive: 29.1 µM [rising, single point]
CCCCN(C(=O)CSc1ncnc2sccc12)c1c(N)n(Cc2ccccc2)c(=O)[nH]c1=O	inactive
Cc1ccc(C)c(Cn2c(=O)n(Cc3ccc(C(=O)NC4CCN(Cc5ccccc5)CC4)cc3)c(=O)c3ccccc32)c1	inconclusive: 29.1 µM [rising, single point]
O=C(c1cn[nH]c1)N1CCc2c([nH]c3ccccc23)C1c1c(F)cccc1Cl (stereo unspecified)	inactive
O=C(NCc1ccc(F)cc1)c1cccc(S(=O)(=O)N2CCCC2)c1	active: 23.1 µM
O=C(/C=C/c1ccco1)NC(=S)Nc1cccc(-c2nc3ccccc3o2)c1	active: 8.2 µM
COc1ccc(N=Cc2nc(-c3ccccc3)oc2OC(=O)c2ccccc2)cc1	inactive
N#C/C(=C(/O)COC(=O)c1ccccc1O)c1nc2ccccc2s1	inconclusive: 20.6 µM [cytotoxic, single point]
CC(=O)Nc1cc(-c2cccc(NS(C)(=O)=O)c2)cn2c(-c3cccc(C(C)=O)c3)cnc12	inactive
COc1ccc(C(=O)Nc2ccc(NC(=O)c3cccc(OC)c3)cn2)cc1	inactive
O=[N+]([O-])c1cc(C(F)(F)F)cc([N+](=O)[O-])c1Sc1n[nH]c(C(F)(F)F)n1	inconclusive: 29.1 µM [rising, single point]
COCCSc1ccccc1C(=O)NCc1cccnc1	inconclusive: 20.6 µM [rising, single point]
CCc1nnc(NC(=O)c2n[nH]c(=O)c3ccccc23)s1	inconclusive: 18.4 µM [cytotoxic, single point]
Cc1cccc(C(=O)Nc2ccc(-c3nc4cc(C(C)C)ccc4o3)cc2)c1	inactive
CC(=O)Nc1ccc(-c2ccnc3c2CC(C(=O)Nc2ccc4c(c2)OCO4)O3)cc1 (stereo unspecified)	inconclusive: 7.31 µM [cytotoxic, partial curve, poor fit]
O=C(CCCN1CCOCC1)c1ccc2c(c1)OCCO2	inactive
CCC(=O)Nc1ccc2c(c1)nc(CCN1CCN(C)CC1)n2C	inconclusive: 20.6 µM [rising, partial curve, poor fit]

SMILES	Potency
CCCN1Cc2cccc(C(=O)NC(CC(=O)OCC)c3ccc(OCC)c(OC)c3)c2C1=O (stereo unspecified)	inconclusive: 1.64 µM [cytotoxic, full curve, poor fit]
COc1ccc(S(=O)(=O)n2nc(C)c(S(=O)(=O)N3CCCCCC3)c2C)cc1OC	inconclusive: 29.1 µM [rising, single point]
Cn1c(=O)n(Cc2ccc(F)cc2)c(=O)c2c1nc1n2CCCN1Cc1ccccc1	inconclusive: 13 µM [cytotoxic, partial curve]
COc1ccc(-c2cc(C(=O)OCC(=O)Nc3ccc4c(c3)OCO4)c3ccccc3n2)cc1	inactive
O=[N+]([O-])c1ccccc1/C=C/c1ccnc2ccccc12	inactive
O=C(NCCC1=CCCCC1)C1CCN(S(=O)(=O)c2cccc3cccnc23)CC1	inconclusive: 29.1 µM [cytotoxic, single point]
O=C(O)CCCCCCCCCCP(=O)(c1ccccc1)c1ccccc1	inactive
COc1ccc(S(=O)(=O)N(C)C[C@H]2Oc3ncc(-c4ccncc4)cc3C(=O)N([C@@H](C)CO)C[C@@H]2C)cc1	inactive
CCOc1ccc(S(=O)(=O)N(CC(=O)NC2CCCCC2C)Cc2ccco2)cc1 (stereo unspecified)	inconclusive: 9.2 µM [cytotoxic, partial curve]
C=C(C)c1cccc(C(C)(C)NC(=O)Nc2ccc(C)cn2)c1	inactive
C/C(=N\NC(=S)NCCc1ccccc1)c1cccs1	inconclusive: 23.1 µM [cytotoxic, single point]
COc1ccc(C2CC(C)(c3ccc(OC)cc3)Nc3ccccc3N2)cc1 (stereo unspecified)	inconclusive: 20.6 µM [cytotoxic, single point]
O=C(Nc1ccc(F)cc1)C1CCCN(c2cnccn2)C1 (stereo unspecified)	inconclusive: 29.1 µM [rising, partial curve, poor fit]
COc1ccc(C2C(Oc3ccccc3)C(=O)N2c2cc(C)ccc2C)cc1OC (stereo unspecified)	active: 6.51 µM
COc1ccc(-c2c3c(nc4sc(C(=O)Nc5ccc(F)cc5)c(N)c24)CC(C)(C)CC3=O)cc1	inactive
O=C(Nc1ccncc1)c1cnn2c1NC(=C1CC1)C=C2C(F)F	inconclusive: 20.6 µM [cytotoxic, single point]
C=CCn1c(Oc2ccc(C=O)cc2OCC)nc2c1c(=O)n(C)c(=O)n2C	inactive
COc1cccc(NC(=O)CSc2nnc(-c3cc(C)n(-c4ccccc4)c3C)o2)c1	inconclusive: 12.6 µM [cytotoxic, single point]
CC[C@@]12C(=O)N(c3ccc(C)cc3)C(=O)N1[C@H](c1ccc(OC)cc1)[C@@H]1C(=O)N(C(C)(C)C)C(=O)[C@@H]12	inconclusive: 16.4 µM [rising, single point]
CC(C(=O)Nc1ccc(F)c(Cl)c1)N1Cc2ccccc2C1=O (stereo unspecified)	inactive
CCN(CC)C(=S)SCc1csc(CC(=O)Nc2ccccc2C)n1	inactive
COc1ccc(-c2noc(N3CCN(c4cccc(Cl)c4)CC3)n2)cc1OC	inconclusive: 23.1 µM [cytotoxic, partial curve, poor fit]
COc1ccc(/C(=N/Nc2ncnc3ccccc23)C(=O)O)cc1	inactive

Three entries picked at random from those above, as already listed:
SMILES	Potency
Cn1c(=O)n(Cc2ccc(F)cc2)c(=O)c2c1nc1n2CCCN1Cc1ccccc1	inconclusive: 13 µM [cytotoxic, partial curve]
CCCCN(C(=O)CSc1ncnc2sccc12)c1c(N)n(Cc2ccccc2)c(=O)[nH]c1=O	inactive
O=[N+]([O-])c1cc(C(F)(F)F)cc([N+](=O)[O-])c1Sc1n[nH]c(C(F)(F)F)n1	inconclusive: 29.1 µM [rising, single point]
